Experimental data as given in patent publication US4897382A, “Organic amide compounds derived from nitrogenous lipids” (priority 1981, dated 1990).
“And” between values parts separate entries of the source, which are not always exact repeats. Equal values may be shown once. The name of at least one read-out is uncertain.

Legend:
[1] = system: prolactin; assay: Hypoprolactinemic effect in rats, serum prolactin by RIA, sulpiride-treated (hyperprolactinemic) animals
[2] = system: prolactin; assay: Hypoprolactinemic effect in rats, serum prolactin by RIA, at the circadian peak at 4 p.m.
[3] = sulpiride 10 γ/kg + 0.5 mg/kg test substance, 0.5 mg/kg
[4] = sulpiride 10 γ/kg + 5.0 mg/kg test substance, 5 mg/kg
[5] = sulpiride 10 γ/kg + 5.0 mg/kg test substance, listed as Sphingosine, 5 mg/kg

SMILES | Prolactin [1, 3] | Prolactin [1, 4] | Prolactin ([2]; 0.5 mg/kg) | Prolactin ([2]; 5.0 mg/kg) | Prolactin Inhibition % ([2]; 5.0 mg/kg) | Prolactin ([1]; sulpiride 10 γ/kg + 0.5 mg/kg test substance, listed as Sphingosine, 0.5 mg/kg) [ng/mL] | Prolactin Inhibition % [1, 4] [%] | Prolactin [1, 5] [ng/mL] | Prolactin Inhibition % [1, 5] [%]
CN1C[C@H](C(=O)O)CC2c3cccc4[nH]cc(c34)C[C@H]21 (stereo partly shown) [dihydrolysergic acid] | 66.0 ± 2.8 ng/mL and 77.0 ± 5.0 ng/mL and 77.0 ± 6.0 ng/mL | 65.0 ± 4.6 ng/mL and 76.0 ± 8.0 ng/mL and 70.0 ± 4.0 ng/mL | 60.0 ± 3.2 ng/mL and 60.0 ± 4.1 ng/mL and 57.0 ± 5.0 ng/mL | 51.0 ± 6.7 ng/mL and 48.0 ± 5.1 ng/mL and 49.0 ± 6.0 ng/mL | 23% and 16% |  |  |  | 
CCCCCCCCCCCCC/C=C/[C@@H](O)[C@@H](N)CO [sphingosine] | 72.0 ± 4.5 ng/mL | 77.0 ± 8.7 ng/mL | 71.0 ± 4.2 ng/mL and 68.0 ± 6.0 ng/mL | 62.0 ± 6.8 ng/mL and 61.0 ± 8.0 ng/mL |  | 81.0 ± 11.0 | 0 | 74.0 ± 6.0 | 14
